Values quoted from earlier work in Sander's compilation of Henry's law constants (doi:10.1063/1.555654).

Assay: Henry solubility constant Hcp at 298.15 K (mol/(m3 Pa))
Details: reference: Mackay and Shiu (1981); cited value

Henry solubility constant Hcp: 8.3e-05
SMILES: C=CCC=C [1,4-pentadiene]
